According to paper PMC8175582:
These are yes or no findings as the source states them, for the method shown. Binding seen in cells or lysates may run through a third protein. Some entries that bind do so weakly or less than the wild type.

Sequences of proteins named here, by UniProt entry; tags and fusion partners are left off.
UniProt P48431: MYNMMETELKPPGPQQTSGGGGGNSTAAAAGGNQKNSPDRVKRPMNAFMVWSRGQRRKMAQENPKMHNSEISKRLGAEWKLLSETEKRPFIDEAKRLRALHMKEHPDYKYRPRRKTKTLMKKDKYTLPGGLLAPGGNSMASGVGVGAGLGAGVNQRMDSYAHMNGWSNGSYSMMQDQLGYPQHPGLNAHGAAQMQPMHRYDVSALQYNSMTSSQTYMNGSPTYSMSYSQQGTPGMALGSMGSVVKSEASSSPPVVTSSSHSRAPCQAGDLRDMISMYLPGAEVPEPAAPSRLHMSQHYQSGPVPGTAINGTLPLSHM
UniProt P40763: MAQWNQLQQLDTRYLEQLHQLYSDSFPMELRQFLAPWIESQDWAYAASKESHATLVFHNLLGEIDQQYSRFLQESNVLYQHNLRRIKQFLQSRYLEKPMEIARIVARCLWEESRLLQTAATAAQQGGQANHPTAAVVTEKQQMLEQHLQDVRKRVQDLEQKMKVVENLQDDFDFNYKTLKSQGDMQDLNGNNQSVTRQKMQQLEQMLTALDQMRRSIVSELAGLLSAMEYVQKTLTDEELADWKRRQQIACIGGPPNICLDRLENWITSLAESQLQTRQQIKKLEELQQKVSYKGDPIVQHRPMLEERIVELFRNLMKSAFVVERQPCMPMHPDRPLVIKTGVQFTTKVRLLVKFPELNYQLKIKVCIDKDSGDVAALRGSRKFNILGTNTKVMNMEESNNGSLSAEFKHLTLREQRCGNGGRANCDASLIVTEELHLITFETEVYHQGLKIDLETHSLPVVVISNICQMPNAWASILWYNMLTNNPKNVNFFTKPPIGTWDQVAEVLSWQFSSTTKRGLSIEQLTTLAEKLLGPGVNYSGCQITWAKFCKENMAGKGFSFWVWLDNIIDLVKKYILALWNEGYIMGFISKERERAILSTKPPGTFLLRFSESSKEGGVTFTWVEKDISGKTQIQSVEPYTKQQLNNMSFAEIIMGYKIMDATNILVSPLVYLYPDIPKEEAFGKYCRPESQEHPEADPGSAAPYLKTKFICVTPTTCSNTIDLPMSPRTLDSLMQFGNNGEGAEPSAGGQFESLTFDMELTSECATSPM

Legend:
[1] = molecular target: T1, FBXO15 in HEK293T cells (co-immunoprecipitation) (UniProt Q8NCQ5); test: co-IP; HEK293T cells treated with MG132 (10 μM) for 6 h; lysates immunoprecipitated for SOX2 or STAT3 and for the Myc- or Myc/Flag-tagged protein
T1 sequence: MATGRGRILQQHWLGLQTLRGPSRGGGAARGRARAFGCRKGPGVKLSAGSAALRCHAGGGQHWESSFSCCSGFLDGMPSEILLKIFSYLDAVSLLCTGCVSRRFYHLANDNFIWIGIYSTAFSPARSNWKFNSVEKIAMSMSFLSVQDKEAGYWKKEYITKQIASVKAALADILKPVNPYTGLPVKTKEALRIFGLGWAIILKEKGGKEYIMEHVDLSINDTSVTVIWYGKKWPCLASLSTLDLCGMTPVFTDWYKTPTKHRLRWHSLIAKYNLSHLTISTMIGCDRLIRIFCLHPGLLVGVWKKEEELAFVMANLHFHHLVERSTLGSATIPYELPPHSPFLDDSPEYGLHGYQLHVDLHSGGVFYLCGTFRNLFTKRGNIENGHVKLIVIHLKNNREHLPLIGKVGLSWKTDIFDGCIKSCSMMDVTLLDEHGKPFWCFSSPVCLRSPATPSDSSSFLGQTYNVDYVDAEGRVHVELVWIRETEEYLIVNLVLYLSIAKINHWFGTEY

[2] = molecular target: T2, F-box protein 15 (FBXO15), endogenous in MCF7 cells (human (endogenous in MCF7)) (UniProt Q8NCQ5); test: proximity ligation; PLA in fixed MCF7 cells with mouse anti-SOX2 or anti-STAT3 and rabbit anti-FBXO15; dots per cell counted with ImageJ
T2 sequence: T1 sequence

[3] = molecular target: T2, F-box protein 15 (FBXO15), endogenous in MCF7 cells (human (endogenous in MCF7)); test: co-IP; MCF7 cell lysate immunoprecipitated with an FBXO15 antibody or IgG control; endogenous proteins; cells treated with MG132 (10 μM) for 6 h before harvest

binding [1]	binding [2]	binding [3]	Substance
binds			SOX2 in HEK293T cells (co-immunoprecipitation) (from UniProt P48431 1-317)
	binds	binds	SOX2, endogenous in MCF7 cells (from UniProt P48431 1-317)
binds			STAT3 in HEK293T cells (co-immunoprecipitation) (from UniProt P40763 1-770)
	binds	binds	STAT3, endogenous in MCF7 cells (from UniProt P40763 1-770)
